Laboratory results reported in US20250326791A1.

Experiments:
Test in all cases: protein binding radioassay
µ opioid receptor (MOR) = target: µ opioid receptor (MOR)
κ opioid receptor (KOR) = target: κ opioid receptor (KOR)
δ opioid receptor (DOR) = target: δ opioid receptor (DOR)

Measured: binding

B1: Odorranalectin (OL) (peptide)
peptide: YASPKCFRYPNGVLACT
modifications: cyclo: disulfide bond Cys6-Cys16
no binding: all assays above

No constants are given. Whether binding was seen depends on the method and setting.
